In patent US8999921B2, “Process for diagnosing rheumatic diseases” (Cypress Bioscience, Inc., priority 2005, dated 2015):
Some results were stated once for a whole list of compounds, not compound by compound. At least one structure is not confirmed: it was looked up by name or label, or the drawing left a doubt.

Test system: antibodies to the polypeptides of the invention
Assay: Follow-up of antibody titer (ELISA based on the polypeptide) and DAS score in treated RA patients
Assay type: in vivo, human
Conditions: for DAS score after treatment: patients with low disease activity (average DAS score of 2.8)
Description: Patients having low disease activity (average DAS score of 2.8) were identified by an ELISA based on the polypeptide of the invention (<300 U/ml on average). Correlating with the success of treatment (DAS score less than 1.5 after treatment) with sulfasalazine or cortisone, the antibody titers were reduced to, on average, ⅙ of the starting value in the course of 1-2 years.
Patients suffering from severe rheumatoid arthritis (average DAS score of 4.9) had, on average, an antibody titer of >1000 U/ml. […] In parallel with the altered antibody titer, patients reported during anamnesis a substantially more positive overall evaluation of their subjective situation regarding the disease, i.e. the diagnostic agent of the invention is also suitable for quality control of the therapy of a severe rheumatoid arthritis.

Row | SMILES | DAS score after treatment | reduction of amount of antibodies to the polypeptides of the invention (severe rheumatoid arthritis (average DAS 4.9), in 50% of patients)
1 | C[C@]12CCC(=O)C=C1CC[C@@H]1[C@@H]2C(=O)C[C@@]2(C)[C@H]1CC[C@]2(O)C(=O)CO [cortisone] | less than 1.5 | –
2 | O=C(O)c1cc(/N=N/c2ccc(S(=O)(=O)Nc3ccccn3)cc2)ccc1O [sulfasalazine] | less than 1.5 | –
3 | CN(Cc1cnc2nc(N)nc(N)c2n1)c1ccc(C(=O)N[C@@H](CCC(=O)O)C(=O)O)cc1 [methotrexate] | – | 30-50%
